# Reference: patent US10590143B2, “Herbicidally active (alkynyl-phenyl)-substituted cyclic dione compounds and derivatives thereof” (Syngenta Limited, priority 2013, dated 2020)
# The name of at least one read-out is uncertain.
# Key:
# Type in all cases: in vivo
# [1] = test system: Beta vulgaris (BEAVA, sugarbeet); experiment: Biological Example 2 glasshouse assay for herbicidal activity; conditions: post-emergence, 14 or 15 DAA, 0.2% v/v X-77
# Description: (§1) Seeds of a variety of monocotyledonous and dicotyledonous test plants are sown in standard soil in pots. The plants are cultivated for one day (for pre-emergence) or for about 12 days (range=10-13 days) (for post-emergence) under controlled conditions in a glasshouse (warm climate species at 24/18° C., cool climate species at 20/16° C., both at day/night; 16 hours light; 65% humidity).
# (§2) An “instant formulation”, known as the “IF50”, containing 50 g/litre (i.e. 5% w/v) of the “technical” (i.e. unformulated) active ingredient is prepared by dissolving the active ingredient in a mixture of organic solvents and emulsifier, details of which are provided in the Table below. This IF50 is then mixed with a small, variable amount of acetone to aid dissolution, before addition of a 0.2% v/v aqueous solution of the adjuvant X-77 (which is a mixture of alkyl aryl polyoxyethylene glycols and free fatty acids in isopropanol, CAS Registry number 11097-66-8), as the aqueous diluent, to form an aqueous spray solution which contains a predetermined concentration of the active ingredient (which varies depending on the application rate of the active ingredient to the plants) and 0.2% v/v of the adjuvant X-77. This aqueous spray solution is then sprayed onto the plants, after one day's cultivation (for pre-emergence) or after about 12 days' cultivation (for post-emergence).
# (§3) The test plants are then grown on, in a glasshouse (greenhouse) under controlled conditions (at either 24/18° C. or 20/16° C. (day/night) as mentioned above; 16 hours light; 65% humidity) and are watered twice daily. Either 14 or 15 days after application of the herbicide (14 or 15 DAA) (for post-emergence), or 20 days after application of the herbicide (20 DAA) (for pre-emergence), the test plants are evaluated visually, and an assessed percentage phytotoxicity score is given for each herbicidal application on each plant species (where 100%=total damage to plant; 0%=no damage to plant).
# (§4) Some of the typical test plants are as follows: • Cool climate crop plants: Triticum aestivum (TRZAW, winter wheat), Brassica napus (BRSNN, rape, also called oilseed rape or rapeseed), Beta vulgaris (BEAVA, sugarbeet). • Warm climate crop plants: Glycine max (GLXMA, soybean). • Cool climate (“cool season”) grassy monocotyledonous weeds: Alopecurus myosuroides (ALOMY), Avena fatua (AVEFA), Lolium perenne (LOLPE), Poa annua (POAAN), Bromus tectorum (BROTE). • Warm climate (“warm season”) grassy monocotyledonous weeds: Setaria faberi (SETFA), SORVU (Sorghum bicolor (L.) Moench ssp. Bicolor, or Sorghum vulgare Pers.), Digitaria sanguinalis (DIGSA), Echinochloa crus-galli (ECHCG), Brachiaria plantaginea (BRAPL); Zea mays (ZEAMX, corn, maize, e.g. volunteer corn).
# [2] = test system: SORVU (Sorghum bicolor (L.) Moench ssp. Bicolor, or Sorghum vulgare Pers.); experiment: as above; conditions: post-emergence, 30 g/ha, 14 or 15 DAA, 0.2% v/v X-77; listed as A1 (test 1)
# Description: as §1, §2, §3, §4
# [3] = test system: Triticum aestivum (TRZAW, winter wheat); experiment: as above; conditions: post-emergence, 14 or 15 DAA, 0.2% v/v X-77
# Description: as §1, §2, §3, §4
# [4] = test system: Zea mays (ZEAMX, corn, maize, e.g. volunteer corn); experiment: as above; conditions: post-emergence, 30 g/ha, 14 or 15 DAA, 0.2% v/v X-77; listed as A1 (test 1)
# Description: as §1, §2, §3, §4
# Setaria faberi (SETFA) [5] = experiment: as above; conditions: post-emergence, 30 g/ha, 14 or 15 DAA, 0.2% v/v X-77
# Description: as §1, §2, §3, §4
# [6] = test system: Alopecurus myosuroides (ALOMY); experiment: as above; conditions: post-emergence, 14 or 15 DAA, 0.2% v/v X-77
# Description: as §1, §2, §3, §4
# Lolium perenne (LOLPE) = experiment: as above; conditions: post-emergence, 30 g/ha, 14 or 15 DAA, 0.2% v/v X-77; listed as A1 (test 1)
# Description: as §1, §2, §3, §4
# [7] = test system: Glycine max (GLXMA, soybean); experiment: as above; conditions: post-emergence, 14 or 15 DAA, 0.2% v/v X-77
# Description: as §1, §2, §3, §4
# Avena fatua (AVEFA) = experiment: as above; conditions: post-emergence, 30 g/ha, 14 or 15 DAA, 0.2% v/v X-77
# Description: as §1, §2, §3, §4
# [8] = test system: Amaranthus retroflexus (AMARE); experiment: Biological Example 1 glasshouse assay for herbicidal activity; conditions: 13 days after application
# Description: (§5) Seeds of a variety of test plant species were sown in standard soil** in pots. After cultivation for one day (pre-emergence) or after 8 days cultivation (post-emergence) under controlled conditions in a glasshouse (at 24/16° C., day/night; 14 hours light; 65% humidity), the plants were sprayed with an aqueous spray solution derived from the formulation of the technical active ingredient (the test herbicide) in acetone/water (50:50) solution containing 0.5% Tween 20 (polyoxyethylene sorbitan monolaurate, CAS Reg. No. 9005-64-5). The test plants were then grown on under controlled conditions in a glasshouse (at 24/16° C., day/night; 14 hours light; 65% humidity) and watered twice daily. 13 Days after application of the test herbicide, for pre- and post-emergence, the test was evaluated visually for percentage phytotoxicity to each plant (where 100%=total damage to plant; 0%=no damage to plant). Generally, each test herbicide is only tested on 1 plant per plant species for each application rate tested and for each application timing. **The “standard soil” in Biological Example 1 is usually a “sand” or “sandy loam” type of soil.
# (§6) Dicotyledonous weeds: ABUTH=Abutilon theophrasti; AMARE=Amaranthus retroflexus. Grassy monocotyledonous weeds: SETFA=Setaria faberi; ALOMY=Alopecurus myosuroides; ECHCG=Echinochloa crus-galli; ZEAMX=Zea mays (corn, maize, e.g. volunteer corn).
# [9] = test system: Abutilon theophrasti (ABUTH); experiment: as above; conditions: 13 days after application
# Description: as §5, §6
# [10] = test system: Echinochloa crus-galli (ECHCG); experiment: as above; conditions: 13 days after application
# Description: as §5, §6
# [11] = test system: Zea mays (ZEAMX, corn, maize, e.g. volunteer corn); experiment: as above; conditions: 13 days after application, listed as A1 (test 2)
# Description: as §5, §6
# Setaria faberi (SETFA) [12] = experiment: as above; conditions: 13 days after application
# Description: as §5, §6
# [13] = test system: Brachiaria plantaginea (BRAPL); experiment: Biological Example 2 glasshouse assay for herbicidal activity; conditions: post-emergence, 30 g/ha, 14 or 15 DAA, 0.2% v/v X-77; listed as X10 (test 2)
# Description: as §1, §2, §3, §4
# [14] = test system: Digitaria sanguinalis (DIGSA); experiment: as above; conditions: post-emergence, 30 g/ha, 14 or 15 DAA, 0.2% v/v X-77; listed as X10 (test 2)
# Description: as §1, §2, §3, §4
# [15] = test system: Echinochloa crus-galli (ECHCG); experiment: as above; conditions: post-emergence, 30 g/ha, 14 or 15 DAA, 0.2% v/v X-77
# Description: as §1, §2, §3, §4
# [16] = 250 g/ha, listed as A1 (test 2)
# [17] = post-emergence, 30 g/ha, listed as A1 (test 1)
# [18] = post-emergence, 30 g/ha, listed as A1 (test 2)
# [19] = pre-emergence, 250 g/ha, listed as A1 (test 2)
# [20] = post-emergence, 250 g/ha, listed as A1 (test 2)
# [21] = post-emergence, 8 g/ha, listed as A1 (test 1)
# [22] = post-emergence, 8 g/ha, listed as A1 (test 2)
# [23] = pre-emergence, 8 g/ha, listed as A1 (test 2)
# [24] = pre-emergence, 30 g/ha, listed as A1 (test 1)
# [25] = pre-emergence, 30 g/ha, listed as A1 (test 2)
# [26] = 30 g/ha, listed as X10 (test 2)
smiles,measurement,setting,value
"CC#Cc1cc(F)c(C2C(=O)C3CCC(C3)C2=O)c(OC)c1 (stereo not shown) [Compound A1, 3-(2-Fluoro-6-methoxy-4-prop-1-ynyl-phenyl)-bicyclo[3.2.1]octane-2,4-dione]",percentage phytotoxicity BEAVA,"[1]; 30 g/ha, listed as A1 (test 1)",10%
same,percentage phytotoxicity BEAVA,"[1]; 30 g/ha, listed as A1 (test 2)",0%
same,percentage phytotoxicity BEAVA,[1]; [16],20%
same,percentage phytotoxicity SORVU,[2],100%
same,percentage phytotoxicity TRZAW,"[3]; 30 g/ha, listed as A1 (test 1)",80%
same,percentage phytotoxicity TRZAW,[3]; [16],90%
same,percentage phytotoxicity ZEAMX,[4],100%
same,percentage phytotoxicity SETFA,Setaria faberi (SETFA) [5]; listed as A1 (test 1),70%
same,percentage phytotoxicity ALOMY,"[6]; 30 g/ha, listed as A1 (test 1)",90%
same,percentage phytotoxicity ALOMY,[6]; [16],90%
same,percentage phytotoxicity LOLPE,Lolium perenne (LOLPE),80%
same,percentage phytotoxicity GLXMA,"[7]; 30 g/ha, listed as A1 (test 1)",20%
same,percentage phytotoxicity GLXMA,"[7]; 30 g/ha, listed as A1 (test 2)",0%
same,percentage phytotoxicity GLXMA,"[7]; 250 g/ha, listed as A1 (test 1)",60%
same,percentage phytotoxicity GLXMA,[7]; [16],10%
same,percentage phytotoxicity AVEFA,Avena fatua (AVEFA); listed as A1 (test 1),80%
same,percentage phytotoxicity AMARE,[8]; [17],20%
same,percentage phytotoxicity AMARE,[8]; [18],0%
same,percentage phytotoxicity AMARE,[8]; [19],30%
same,percentage phytotoxicity ABUTH,[9]; [17],30%
same,percentage phytotoxicity ABUTH,[9]; [18],0%
same,percentage phytotoxicity ABUTH,"[9]; post-emergence, 250 g/ha, listed as A1 (test 1)",80%
same,percentage phytotoxicity ABUTH,[9]; [20],20%
same,percentage phytotoxicity ABUTH,"[9]; pre-emergence, 250 g/ha, listed as A1 (test 1)",20%
same,percentage phytotoxicity ABUTH,[9]; [19],0%
same,percentage phytotoxicity ECHCG,[10]; [21],100%
same,percentage phytotoxicity ECHCG,[10]; [22],70%
same,percentage phytotoxicity ECHCG,[10]; [18],90%
same,percentage phytotoxicity ECHCG,"[10]; pre-emergence, 8 g/ha, listed as A1 (test 1)",100%
same,percentage phytotoxicity ECHCG,[10]; [23],30%
same,percentage phytotoxicity ECHCG,[10]; [24],100%
same,percentage phytotoxicity ECHCG,[10]; [25],30%
same,percentage phytotoxicity ZEAMX,"[11]; post-emergence, 8 g/ha",80%
same,percentage phytotoxicity ZEAMX,"[11]; post-emergence, 30 g/ha",90%
same,percentage phytotoxicity ZEAMX,"[11]; pre-emergence, 8 g/ha",70%
same,percentage phytotoxicity ZEAMX,"[11]; pre-emergence, 30 g/ha",90%
same,percentage phytotoxicity SETFA,Setaria faberi (SETFA) [12]; [21],80%
same,percentage phytotoxicity SETFA,Setaria faberi (SETFA) [12]; [22],50%
same,percentage phytotoxicity SETFA,Setaria faberi (SETFA) [12]; [17],100%
same,percentage phytotoxicity SETFA,Setaria faberi (SETFA) [12]; [18],70%
same,percentage phytotoxicity SETFA,Setaria faberi (SETFA) [12]; [20],90%
same,percentage phytotoxicity SETFA,Setaria faberi (SETFA) [12]; [23],40%
same,percentage phytotoxicity SETFA,Setaria faberi (SETFA) [12]; [24],80%
same,percentage phytotoxicity SETFA,Setaria faberi (SETFA) [12]; [25],40%
same,percentage phytotoxicity SETFA,Setaria faberi (SETFA) [12]; [19],80%
"CCc1cc(C)cc(CC)c1C1C(=O)C2CCC(C2)C1=O (stereo not shown) [Compound X10, reference compound]",percentage phytotoxicity BRAPL,[13],90%
same,percentage phytotoxicity DIGSA,[14],90%
same,percentage phytotoxicity ECHCG,[15]; listed as X10 (test 1),50%
same,percentage phytotoxicity ECHCG,[15]; listed as X10 (test 2),90%
same,percentage phytotoxicity TRZAW,"[3]; 30 g/ha, listed as X10 (test 1)",0%
same,percentage phytotoxicity TRZAW,[3]; [26],30%
same,percentage phytotoxicity SETFA,Setaria faberi (SETFA) [5]; listed as X10 (test 2),90%
same,percentage phytotoxicity ALOMY,[6]; [26],70%
same,percentage phytotoxicity AVEFA,Avena fatua (AVEFA); listed as X10 (test 1),30%
same,percentage phytotoxicity AVEFA,Avena fatua (AVEFA); listed as X10 (test 2),80%
